Assay results: paper PMC12040169 (PLOS Biology, 2025)
The list shows a part of the results.

tested on: T1, CTL2-GFP (C. trachomatis L2/434/Bu, GFP-expressing); set-up: species or system HeLa; Intracellular C. trachomatis growth in HeLa cells, bulk GFP fluorescence relative to DMSO; conditions: bulk GFP, single well; 28.5 h, 10 µM; inhibitor
T1 construct: L2/434/Bu, GFP-expressing

| Compound | % of control remaining |
| --- | --- |
| N#CCCN(Cc1ccco1)C(=O)c1cccc(NC(=O)C2CC2)c1 [CBK304014] | 110.582% |
| CC(C)(C)c1ccccc1NC(=O)N(CCN)Cc1cc(F)cc(F)c1 [CBK046263C] | 119.62% |
| Cc1ccc(S(=O)(=O)Nc2nnc(C(C)C)s2)cc1 [CBK045528] | 107.991% |
| CN1CCC(COC(=O)Nc2cccnc2)CC1 [CBK138232] | 88.1976% |
| COC(=O)[C@H]1CN(C(=O)c2cn(C)nc2C)C[C@@H]1c1ccccc1F [CBK283511] | 125.477% |
| CC[C@H](Cn1c(=O)oc2ccccc21)NC(=O)Cc1cccs1 [CBK284537] | 144.694% |
| CN(CC(=O)Nc1cc2ccccc2c(N2CCNCC2)n1)C(=O)c1ccccc1 [CBK028421T] | 123.571% |
| Cn1cc(-c2nccnc2OC2CCCCC2)cn1 [CBK107072] | 166.844% |
| COc1ccc(CC(=O)N2CCN(C(C)c3nc4ccccc4s3)CC2)cc1F (stereo not drawn) [CBK297733] | 133.526% |
| COC(=O)c1ccc(N2CCN(C)CC2)c([N+](=O)[O-])c1 [CBK264341] | 122.151% |
| CN(C)c1ccc(-c2ccnc3nc(N)ccc23)cc1 [CBK067640] | 131.419% |
| Cc1c(C(=O)N(C)Cc2cccn2C)[nH]c2ccccc12 [CBK283270] | 104.504% |
| COc1ccc(C(=O)C2=C(O)C(=O)N(Cc3cccnc3)C2c2ccc(OC)cc2OC)c(C)c1 (stereo not drawn) [CBK264928] | 123.234% |
| Cc1sc2[nH]c(CCC(=O)N3CCCC(C)CC3)nc(=O)c2c1C (stereo not drawn) [CBK305807] | 123.357% |
| CSc1nsc(SCC(=O)c2ccc3c(c2)OCCO3)n1 [CBK268904] | 104.677% |
| CCOC(=O)C1CCN(C(=O)c2cccnc2NCc2ccc3c(c2)OCO3)CC1 [CBK160106] | 63.6467% |
| COc1ccc2[nH]cc(CCNC(=O)[C@H](CC(C)C)NC(C)=O)c2c1 [CBK116210] | 116.345% |
| O=C(N[C@@H](Cn1cc(F)c(=O)[nH]c1=O)C(=O)O)C1CCCCC1 [CBK289661] | 106.381% |
| CC(=O)Nc1ccccc1/C=C/c1ccc2c(C)cc(C)c(O)c2n1 [CBK261937] | 84.2645% |
| Cc1cc2occ(CC(=O)NCc3ccccn3)c2c(C)c1Cl [CBK269175] | 128.606% |
| O=C(O)CCC(=O)N1CCCC2(CCN(Cc3ccccc3)C2)C1 (stereo not drawn) [CBK136890] | 106.31% |
| O=C(COc1ccc(I)cc1)Nc1cccnc1 [CBK263430] | 115.606% |
| CCc1nc2ccc(C(=O)N3CCN(c4ccccc4)CC3)cn2c1N(C)Cc1ccc(OC)cc1 [CBK145584] | 109.577% |
| O=C(O)c1cccc(NC(=O)c2cccc(S(=O)(=O)N3CCc4ccccc4C3)c2)c1 [CBK265187] | 119.116% |
| Cc1noc(NS(=O)(=O)c2ccc(NC(=O)/C=C/c3ccc(C(C)C)cc3)cc2)c1C [CBK265430] | 19.2265% |
| Cc1cc(C)n(CCNC(=O)c2ncoc2-c2ccc(F)cc2)n1 [CBK282356] | 117.239% |

| Compound | % of control remaining |
| --- | --- |
| Cc1ccc(C(=O)N2CN(C(=O)CN3CCOCC3)CC(C)(C)C2)cc1 [CBK039190] | 149.873% |
| O=[N+]([O-])c1ccc(S(=O)(=O)NCCSCc2cccc(Cl)c2)cc1 [CBK268066] | 95.6921% |
| CC(C)c1nsc(NS(=O)(=O)Cc2ccccc2)n1 [CBK051188] | 101.716% |
| COc1ccc(-c2c[nH]c([C@@H]3COCCN3Cc3cccc(C#N)c3)n2)cc1 [CBK289298] | 134.985% |
| COc1ccc(Sc2cc(C(F)(F)F)ccn2)cc1OC [CBK093762] | 95.2101% |
| O=C(CN1C(=O)c2ccccc2C1=O)Nc1sc2c(c1C(=O)NCc1ccco1)CCCC2 [CBK265670] | 100% |
| C(=C\c1nccnc1OCCc1c[nH]c2ccccc12)/c1ccccc1 [CBK106872] | 111.486% |
| CC(=O)c1cccc(NC(=O)N(CCO)C2CCc3ccccc32)c1 (stereo not drawn) [CBK305517] | 127.061% |
| CCN(CC)c1ccc(C(=O)CN2CCN(c3nccnc3OCCN3CCOCC3)CC2)cc1 [CBK082898T] | 94.6762% |
| O=C(c1cc(S(=O)(=O)N2CCOCC2)ccc1Cl)N1CCCC(CO)C1 (stereo not drawn) [CBK304236] | 136.531% |
| Cc1c(-c2cc(C(F)F)n3nc(CCC(=O)O)nc3n2)cnn1C [CBK286888] | 133.392% |
| CC(C)[C@H]1CN(Cc2ccco2)CCN1Cc1ccco1 [CBK284271] | 135.217% |
| CCc1c(C(=O)NC2CCCOC2)[nH]c2ccc(F)cc12 (stereo not drawn) [CBK283115] | 89.6347% |
| COCOc1ccc(-c2nccnc2OC)cc1 [CBK106914] | 103.994% |
| CCCS(=O)(=O)NC1CC(C)(C)Cc2c1cnn2-c1ccccc1 (stereo not drawn) [CBK307265] | 109.522% |
| CC1CCC(N(CCCN)Cc2ccco2)CC1C (stereo not drawn) [CBK268947] | 162.516% |
| CC(=O)Nc1cccc(CN2CCCC(CO)C2)c1 (stereo not drawn) [CBK305527] | 112.764% |
| CCc1nc2c(Oc3nc4ccccc4s3)cccn2c1N(C)C(=O)C(C)C [CBK147765] | 107.128% |
| COc1cc2c(cc1OC)C1=NNC(=O)C1=NC(C)(C)C2 [CBK288353] | 33.9514% |
| CCn1nc(NC(=O)C2Cc3ccccc3CN2C)cc1C (stereo not drawn) [CBK282133] | 168.566% |
| CC(=O)Nc1ccc(/N=C/c2ccc(Cl)cc2)cc1 [CBK015166] | 96.3428% |
| O=c1[nH]c(=O)c2cc(S(=O)(=O)NCC3CCN(Cc4ccccc4)C3)ccc2[nH]1 (stereo not drawn) [CBK286384] | 133.647% |
| O=C(COc1cccnc1)N1CCCc2ccccc21 [CBK200258] | 120.568% |
| O=C(NCCn1cccn1)N1CCC(Cc2ccc(F)cc2)CC1 [CBK304381] | 79.9972% |
| COc1ccc(O)c(CN(C)CCN(C)C)c1 [CBK261854] | 113.589% |

2 neighbouring compounds out of the list so far:

| Compound | % of control remaining |
| --- | --- |
| CC(C)(C)c1ccccc1NC(=O)N(CCN)Cc1cc(F)cc(F)c1 [CBK046263C] | 119.62% |
| Cc1ccc(S(=O)(=O)Nc2nnc(C(C)C)s2)cc1 [CBK045528] | 107.991% |
